{
  "sequences": {"note": "By UniProt entry, the sequences of proteins in these tests, tags left out. Where a name states a change or a piece, a line headed by the entry shows the natural chain unless it says otherwise.", "UniProt P02671": "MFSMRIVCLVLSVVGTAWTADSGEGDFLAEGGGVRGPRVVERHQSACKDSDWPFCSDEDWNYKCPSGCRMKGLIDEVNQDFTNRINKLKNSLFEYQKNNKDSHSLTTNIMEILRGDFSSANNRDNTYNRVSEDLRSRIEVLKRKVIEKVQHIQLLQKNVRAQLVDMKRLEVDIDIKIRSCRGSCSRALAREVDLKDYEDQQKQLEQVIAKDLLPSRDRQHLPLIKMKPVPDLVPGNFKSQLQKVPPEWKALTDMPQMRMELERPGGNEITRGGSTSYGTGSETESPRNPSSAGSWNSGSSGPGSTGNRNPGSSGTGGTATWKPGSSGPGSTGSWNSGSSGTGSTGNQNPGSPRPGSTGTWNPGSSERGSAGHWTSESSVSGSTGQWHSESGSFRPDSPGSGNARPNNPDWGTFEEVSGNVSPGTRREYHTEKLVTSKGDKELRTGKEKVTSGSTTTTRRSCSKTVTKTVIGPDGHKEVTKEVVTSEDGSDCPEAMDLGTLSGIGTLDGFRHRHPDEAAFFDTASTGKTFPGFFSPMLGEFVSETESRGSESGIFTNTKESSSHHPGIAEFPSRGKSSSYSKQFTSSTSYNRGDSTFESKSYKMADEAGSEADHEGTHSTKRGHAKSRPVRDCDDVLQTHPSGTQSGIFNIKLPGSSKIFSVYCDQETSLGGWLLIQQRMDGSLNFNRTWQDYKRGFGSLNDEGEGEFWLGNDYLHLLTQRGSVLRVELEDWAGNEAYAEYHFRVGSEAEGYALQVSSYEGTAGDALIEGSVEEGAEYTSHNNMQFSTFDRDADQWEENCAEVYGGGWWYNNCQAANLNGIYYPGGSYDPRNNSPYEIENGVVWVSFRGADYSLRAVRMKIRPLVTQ", "UniProt P02675": "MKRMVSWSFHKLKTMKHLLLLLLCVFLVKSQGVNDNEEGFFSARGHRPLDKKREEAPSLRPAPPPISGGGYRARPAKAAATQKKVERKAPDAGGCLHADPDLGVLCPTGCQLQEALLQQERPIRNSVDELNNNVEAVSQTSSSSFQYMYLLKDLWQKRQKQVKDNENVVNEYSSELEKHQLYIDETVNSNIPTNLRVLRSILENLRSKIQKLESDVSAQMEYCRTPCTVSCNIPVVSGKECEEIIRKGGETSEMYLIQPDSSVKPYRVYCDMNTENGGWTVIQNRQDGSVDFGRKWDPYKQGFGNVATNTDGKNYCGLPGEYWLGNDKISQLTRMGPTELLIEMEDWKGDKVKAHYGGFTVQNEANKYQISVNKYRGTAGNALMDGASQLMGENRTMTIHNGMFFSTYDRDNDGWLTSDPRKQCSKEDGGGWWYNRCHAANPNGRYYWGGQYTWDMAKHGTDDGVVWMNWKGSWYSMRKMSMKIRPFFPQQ", "UniProt P02679": "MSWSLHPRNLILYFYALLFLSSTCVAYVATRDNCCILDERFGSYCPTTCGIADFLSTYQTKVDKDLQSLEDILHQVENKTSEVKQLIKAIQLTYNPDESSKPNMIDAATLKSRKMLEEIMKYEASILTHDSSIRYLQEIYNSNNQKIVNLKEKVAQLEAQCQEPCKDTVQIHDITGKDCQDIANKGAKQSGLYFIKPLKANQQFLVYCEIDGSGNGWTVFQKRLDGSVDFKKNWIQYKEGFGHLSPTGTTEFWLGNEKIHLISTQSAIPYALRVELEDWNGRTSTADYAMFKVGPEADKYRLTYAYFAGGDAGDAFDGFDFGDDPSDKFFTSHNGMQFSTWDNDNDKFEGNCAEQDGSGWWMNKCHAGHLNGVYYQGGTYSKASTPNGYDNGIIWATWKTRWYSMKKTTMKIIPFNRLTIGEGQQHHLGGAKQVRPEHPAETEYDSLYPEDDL"},
  "source": "patent US20200157519A1",
  "binders": {"B1": {"name": "recombinant (3D5 VL-(G4S)3-VH scFv α fibrin)-reteplase polypeptide (protein)", "chain": "DIQMTQSPSSLSASVGDRVTITCRASQDVSNNVAWYQQKPGKAPKLLIFWSPWLYSGVPSRFSGSGSGTDFTLTISSLQPEDFATYYCQQGWDSPVTFGQGTKVEIKRGSTSGSGKPGSGEGSTKGEVQLVESGGGLVQPGGSLRLSCAASGFTISDFGIHWVRQAPGKGLEWVASIWPSGGYTYYADSVKGRFTISADTSKNTAYLQMNSLRAEDTAVYYCARSWFYSWYDYWGQGTLVTVSSASGGGGSGGGGSGGGGSSYQGNSDCYFGNGSAYRGTHSLTESGASCLPWNSMILIGKVYTAQNPSAQALGLGKHNYCRNPDGDAKPWCHVLKNRRLTWEYCDVPSCSTCGLRQYSQPQFRIKGGLFADIASHPWQAAIFAKHRRSPGERFLCGGILISSCWILSAAHCFQERFPPHHLTVILGRTYRVVPGEEEQKFEVEKYIVHKEFDDDTYDNDIALLQLKSDSSRCAQESSVVRTVCLPPADLQLPDWTECELSGYGKHEALSPFYSERLKEAHVRLYPSSRCTSQHLLNRTVTDNMLCAGDTRSGGPQANLHDACQGDSGGPLVCLNDGRMTLVGIISWGLGCGQKDVPGVYTKVTNYLDWIRDNMRPA"}},
  "molecular_target": "human fibrin (human fibrinogen coated on the plate and treated with thrombin) (human) (UniProt P02671+P02675+P02679)",
  "assay": "ELISA, HRP-conjugated polyclonal rabbit anti-reteplase antibody",
  "note": "No constants are given. Whether binding was seen depends on the method and setting. Some results given as binding are weak or reduced against the parent protein; the word gives no strength.",
  "data": [
    {"binder": "B1", "values": [
      {"measurement": "binding", "value": "binds"}
    ]}
  ]
}
